Measurements reported in article doi:10.1101/2024.01.24.577116.
These are yes or no findings as the source states them, for the method shown. Binding seen in cells or lysates may run through a third protein. Some binding calls cover weakened binding; strength is not graded here.

Protein sequences, listed by entry. Tags and fused reporters are not part of them. Residues count along the entry.
UniProt Q9QY81, residues 27-1886: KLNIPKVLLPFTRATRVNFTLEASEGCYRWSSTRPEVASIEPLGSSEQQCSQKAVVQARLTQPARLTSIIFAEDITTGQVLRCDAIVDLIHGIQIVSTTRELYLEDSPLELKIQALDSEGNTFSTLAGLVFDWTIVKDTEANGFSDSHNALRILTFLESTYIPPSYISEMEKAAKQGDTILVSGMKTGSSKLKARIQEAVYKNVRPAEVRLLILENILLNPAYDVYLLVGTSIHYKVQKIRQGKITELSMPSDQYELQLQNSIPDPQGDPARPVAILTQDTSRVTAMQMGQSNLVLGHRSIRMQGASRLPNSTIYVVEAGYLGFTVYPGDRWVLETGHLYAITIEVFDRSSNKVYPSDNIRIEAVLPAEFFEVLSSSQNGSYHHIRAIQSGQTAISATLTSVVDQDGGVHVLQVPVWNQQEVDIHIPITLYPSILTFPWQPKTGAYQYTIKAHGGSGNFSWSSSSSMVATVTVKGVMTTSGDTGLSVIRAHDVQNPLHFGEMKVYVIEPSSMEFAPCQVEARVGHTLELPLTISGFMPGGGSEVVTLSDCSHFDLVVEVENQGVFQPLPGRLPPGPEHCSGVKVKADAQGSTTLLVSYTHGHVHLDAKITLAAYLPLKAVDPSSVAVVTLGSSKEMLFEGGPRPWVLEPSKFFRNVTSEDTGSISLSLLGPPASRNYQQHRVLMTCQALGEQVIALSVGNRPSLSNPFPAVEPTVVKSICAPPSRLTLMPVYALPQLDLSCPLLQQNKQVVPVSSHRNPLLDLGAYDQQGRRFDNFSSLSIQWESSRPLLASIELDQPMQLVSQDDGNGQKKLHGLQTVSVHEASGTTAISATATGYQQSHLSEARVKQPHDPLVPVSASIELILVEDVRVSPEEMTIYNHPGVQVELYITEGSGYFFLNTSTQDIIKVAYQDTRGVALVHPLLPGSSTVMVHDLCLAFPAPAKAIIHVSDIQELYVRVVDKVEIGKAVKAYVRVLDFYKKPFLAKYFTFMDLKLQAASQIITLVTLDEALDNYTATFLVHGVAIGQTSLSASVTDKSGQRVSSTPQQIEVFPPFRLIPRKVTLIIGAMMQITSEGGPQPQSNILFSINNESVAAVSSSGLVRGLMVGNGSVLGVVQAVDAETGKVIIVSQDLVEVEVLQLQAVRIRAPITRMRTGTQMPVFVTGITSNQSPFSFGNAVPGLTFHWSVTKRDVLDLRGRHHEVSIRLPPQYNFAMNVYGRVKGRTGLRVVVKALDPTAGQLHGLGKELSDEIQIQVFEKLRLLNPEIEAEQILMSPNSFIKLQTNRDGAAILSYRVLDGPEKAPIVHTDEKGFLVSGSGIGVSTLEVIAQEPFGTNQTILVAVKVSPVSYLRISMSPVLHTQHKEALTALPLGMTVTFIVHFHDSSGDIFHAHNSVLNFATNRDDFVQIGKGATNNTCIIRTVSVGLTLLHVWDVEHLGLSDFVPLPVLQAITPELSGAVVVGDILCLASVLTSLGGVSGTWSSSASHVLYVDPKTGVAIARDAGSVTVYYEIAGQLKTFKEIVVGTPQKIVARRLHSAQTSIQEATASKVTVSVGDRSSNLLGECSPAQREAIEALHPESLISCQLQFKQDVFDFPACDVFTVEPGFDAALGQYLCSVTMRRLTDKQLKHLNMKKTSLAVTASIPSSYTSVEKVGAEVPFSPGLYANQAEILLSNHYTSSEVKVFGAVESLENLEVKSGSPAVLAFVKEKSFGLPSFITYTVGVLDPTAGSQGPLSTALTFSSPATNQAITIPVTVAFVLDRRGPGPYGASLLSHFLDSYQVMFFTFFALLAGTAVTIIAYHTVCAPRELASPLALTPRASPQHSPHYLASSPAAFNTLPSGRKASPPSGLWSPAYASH

B1: endogenous NAT10 (protein, UniProt Q8K224 1-1024)
chain: MNRKKVDNRIRILIENGVAERQRSLFVVVGDRGKDQVVILHHMLSKATVKARPSVLWCYKKELGFSSHRKKRMRQLQKKIKSGTLNLKQDDPFELFVAATNIRYCYYNETHKILGNTFGMCVLQDFEALTPNLLARTVETVEGGGLVVILLRTMNSLKQLYTMTMDVHSRYRTEAHQDVVGRFNERFILSLASCKKCLVIDDQLDILPISSHVASIEALPPQAPDENLSPAALELLELKESLQDTQPVGVLVDCCKTLDQAKAVLKFIEGISEKTLRSTVALTAARGRGKSAALGLAIAGAVAFGYSNIFVTSPSPDNLHTLFEFVFKGFDALQYQEHLDYEIVQSLNPEFNKAVIRVNVFREHRQTIQYIHPADAVKLGQAELVVIDEAAAIPLPLVKSLLGPYLVFMASTINGYEGTGRSLSLKLIQQLRQQSAQSQVSTTAENKTTTTARLASARTLHEVSLQESIRYAPGDAVEKWLNDLLCLDCLNITRIVSGCPLPEACELYYVNRDTLFCYHKASEVFLQRLMALYVASHYKNSPNDLQMLSDAPAHHLFCLLPPVPPTQNALPEVLAVVQVCLEGEISRQSILNSLSRGKKASGDLIPWTVSEQFQDPDFGGLSGGRVVRIAVHPDYQGMGYGSRALQLLQMYYEGKFPCLEEKVLETPQEIRTVSSEAVSLLEEVITPRKDLPPLLLKLNERPAERLDYLGVSYGLTPRLLKFWKRAGFVPVYLRQTPNDLTGEHSCIMLKTLADEDEAEQGAWLAAFWKDFRRRFLALLSYQFSTFSPALSLNIIQNRNVAKSALPALGREHLEALFLPYDLKRLEMYSRNMVDYHLIMDLIPAISRLYFLNQLGDLSLSAAQSALLLGIGLQHKSVDQLEKEIELPSGQLMGLFNRIIRKVVKLFNDVQEKAIEEQMVAVKDVVMEPTMKTLSDDLDEAAKEFQEKHKKEVGKLKDMDLSQYVIRGDDEEWNEVLSKAGQNASIVSLKSDKKRKLETKQEPKQSKKLKKRDNNRKDMKLKRKK
B2: SIPA1 (protein, UniProt P46062 1-1037)
chain: MWAGGVGSPRRGMAPAPTDDLFARKLRQPARPPLTPNTFEPRPARGPLLRSGSDAGEVRPPTPASPRARAHSHEDASRPAATPTRLFTDPLALLGLPAEEPEPTFPPVLEPRWFAHYDVQSLLFDWAPRPRGTGSHTEANSGTLAEGQTTTSDLLLGAPGFVSELGGEGELGLGGPISPPVPPALPNAAVSVLEEPQTRTTTYSLEHADLGAGYYRKYFYGKEHQNFFGLDEALGPVAVSLRREEKEGSGGGTLHSYRVIVRTTQLRTLRGTISEDALPPGPPSVSPRKLLEHVAPRLSPTCLRLGSASPKVPRQLLTLDEQVLSFQRKGGILYCRAGQGSEEEMYNNQEAGAAFMQFLTLLGDVVRLKGFESYRAQLDTKTDSTGTHSLYTTYQDHEIMFHVSTMLPYTPNNQQQLLRKRHIGNDIVTIVFQEPGSKPFCPTTIRSHFQHVFLVVRAHAPCTPHTSYRVAVSRTQDTPAFGPALPEGGGPFAANADFRAFLLAKALNGEQAAGHARQFHAMATRTRQQYLQDLATNEVTTTSLDSASRFGLPSLGGRRRATPRSPGADVQAAGALMWGVRAAPGARVAAGAETSGPDDAEVPCLLGISAETLVLVAPRDGRVVFNCACRDVLAWTFSEHQLDLYHGRGEAITLRLDGAPGQAVGEVVARLQLVSRGCETRELALPRDGQGRLGFEVDAEGFITHVERFTFAETTGLRPGARLLRVCGQTLPKLGPETAAQMLRSAPKVCVTVLPPDESGRPRRSFSELYMLSLKEPSRRGGPEPVQDETGKLVILPPTKQLLHFCLKDSSSPPGPGDLTEERTEFLRTHNSLSSGSSLSDEAPVLPNTTPDLLLVTTANPSAPGTDRETPPSQDQSGSPSSHEDTSDSGPELRASILPRTLSLRNSISKIMSEAGSETLEDEWQSISEIASTCNTILESLSREGQPISESGDPKEALKCDSEPEPGSLSEKVSHLESMLWKLQEDLQREKADRAALEEEVRSLRHNNQRLLAESESAATRLLLASKHLGAPTTDLA

Assays:
[1] = molecular target: NUP210 (in 4T1 cells, proximity ligation assay) (mouse (endogenous in 4T1)) (UniProt Q9QY81); assay: proximity ligation
Myc-tagged NUP210 = Myc-tagged NUP210 (UniProt Q9QY81); assay: co-IP

Row | Binder | binding [1] | binding (Myc-tagged NUP210)
1 | B1 | binds | binds
2 | B2 | binds | binds weakly
